Assay results published in US20180057604A1.
No constants are given. Whether binding was seen depends on the method and setting. Some results given as binding are weak or reduced against the parent protein; the word gives no strength.

Columns and labels:
[1] = target: cyno TfR, full length, transiently expressed in 293 cells (cynomolgus monkey); assay: FACS, 293 cells, 1 uM holo-Tf
[2] = target: human TfR, full length, on cells (human) (UniProt P02786); assay: FACS, 293 cells, 1 uM holo-Tf
[3] = target: cyno TfR extracellular domain (analogous construct to human TfR ecd) (cynomolgus monkey); assay: ELISA
[4] = target: human TfR extracellular domain with N-terminal His tag (human) (UniProt P02786); assay: ELISA
[5] = target: cyno TfR, full length, transiently expressed in 293 cells (cynomolgus monkey); assay: FACS on transfected 293 cells, 1 uM holo-Tf present
[6] = target: human TfR, full length, on cells (human) (UniProt P02786); assay: as above

Measured: binding

B1: 10D11 (antibody, V domains shown)
VH: QVQLQQSGPELVRPGVAVKISCKGSGYKFIDYGMHWVKQSHTKSLQWIGVISPYSGKTNYSQKFKGKATMTVDKSSSTAYMELARLTSEDSAIYYCARGLSGNFVMDFWGQGTSVTVSS
VL: DIVLTQSPASLAVSLGQRATISCRASESVDSYGPSFMHWYQQKPGQPPKLLIYRASNLESGIPARFSGSGSRTDFTLTINPVEADDVATYYCQHSNEDPPTFGGGTRLEIK
binds: all assays above

B2: 8A2 (antibody, V domains shown)
VH: QVQLQQSGPELVRPGVSVKISCKGSGYTFTDYGMHWVKQSHAKSLEWIGVISPYSGRTNYNQNFKGKATMTVDKSSSTAYLELARLTSEDSAIYYCARGLSGNYVVDYWGQGTSVTVSS
VL: DIVLTQSPASLAVSLGQRATISCRASESVDSYGNSFMHWYQQKPGQPPKLLIYRASNLESGIPARFSGSGSRTDFTLTINPVEADDVATYYCQQSNEGPPTFGGGTKLEIK
binds: [1] | [3] | [5]

B3: 7A4 (antibody, V domains shown)
VH: QVQLQQSGPELVRPGVSVKISCKGSGYTFTDYAMHWVKQSHAKSLEWIGGISTYFGRTNYNQKFKGRATMTVDKSSSTAYMELARLTSEDSALYYCARGLSGNYVMDYWGQGTSVTVSS
VL: DIVLTQSPASLAVSLGQRATISCRASESVDDYGNSFMHWYQQKPGQPPKLLIYRASNLESGIPARFSGSGSRTDFTLTINPVEADDVATYYCQQSNEAPPTFGGGTKLEIR
binds: all assays above

B4: 7B10 (antibody, V domains shown)
VH: QVQLQQSGPELVRPGVSVKISCKGSGYTFTDYAMHWVKQSHAKSLEWIGGISTYFGRTNYNQKFKGRATMTVDKSSSTAYMELARLTSEDSALYYCARGLSGNYVMDYWGQGTSVTVSS
VL: DIVLTQSPASLAVSLGQRATISCRASESVDDYGNSFMHWYQQKPGQPPKLLIYRASNLESGIPARFSGSGSRTDFTLTINPVEADDVATYYCQQSNEAPPTFGGGTKLEIR
binds: all assays above

B5: 15D2 (antibody, V domains shown)
VH: QVQLQQSGPELVRPGVSVKISCKGSGYTVTDYAMHWVKQSHAKSLEWIGVISFYSGKTNYNQKFMGKATMTVDKSSSTAYMELARLTSEDSAIYYCARGLSGNYVMDYWGQGTSVTVSS
VL: DIVLTQSPASLAVSLGQRATISCRASESVDSYGNSFMHWYQQKPGQPPKLLIYRASNLESGIPARFSGSGSRTDFTLTINPVEADDVATYYCQQSNEGPPTFGGGTKLEIK
binds: [1] | [3] | [5]

B6: 16G5 (antibody, V domains shown)
VH: QVQLQQPGAELVRPGAAVKLSCKASGYTFTSYWMHWVKQRPGQGLEWIGEINPTNGRTNYNENFKSKATLTVDKSSSTAYMQLSSLTSEDSAVYYCARGTRAYHFWGQGTSVTVSS
VL: DIQLTQTPASLSVSVGETVTITCRASENIYSNLAWYQQKQGKSPQLLVYAATDLADGVPSRFRGSGSGTQYSLKINSLQSEDFGSYYCQHFWGTPLTFGAGTKLELI
binds: [1] | [3] | [5]

B7: 16F6 (antibody, V domains shown)
VH: DVQLQESGPGLVKPSQSLSLTCTVTGNSITSEYAWNWIRQFPGNKLEWMGYISYSGTTSYNPSLKSRISITRDTSKNQLFLQLNSVTTEDTATYFCARYGYGNPATRYFDVWGAGTTVTVSS
VL: DVQITQSPSYLTASPGETITINCRASKSISKYLAWYQEKPGKTNKLLIYSGSTLQSGIPSRFSGSGSGTDFTLTISNLEPEDFAMYYCQQHNEYPWTFGGGTKLEIK
binds: [1] | [3] | [5]
